# Assay results from PubChem BioAssay AID588590 (National Center for Advancing Translational Sciences (NCATS), 2011).
# The chains behind the UniProt entries cited, without tags or fusion partners. Where a name states a change or a piece, a line headed by the entry shows the natural chain unless it says otherwise.
# UniProt Q9UNA4: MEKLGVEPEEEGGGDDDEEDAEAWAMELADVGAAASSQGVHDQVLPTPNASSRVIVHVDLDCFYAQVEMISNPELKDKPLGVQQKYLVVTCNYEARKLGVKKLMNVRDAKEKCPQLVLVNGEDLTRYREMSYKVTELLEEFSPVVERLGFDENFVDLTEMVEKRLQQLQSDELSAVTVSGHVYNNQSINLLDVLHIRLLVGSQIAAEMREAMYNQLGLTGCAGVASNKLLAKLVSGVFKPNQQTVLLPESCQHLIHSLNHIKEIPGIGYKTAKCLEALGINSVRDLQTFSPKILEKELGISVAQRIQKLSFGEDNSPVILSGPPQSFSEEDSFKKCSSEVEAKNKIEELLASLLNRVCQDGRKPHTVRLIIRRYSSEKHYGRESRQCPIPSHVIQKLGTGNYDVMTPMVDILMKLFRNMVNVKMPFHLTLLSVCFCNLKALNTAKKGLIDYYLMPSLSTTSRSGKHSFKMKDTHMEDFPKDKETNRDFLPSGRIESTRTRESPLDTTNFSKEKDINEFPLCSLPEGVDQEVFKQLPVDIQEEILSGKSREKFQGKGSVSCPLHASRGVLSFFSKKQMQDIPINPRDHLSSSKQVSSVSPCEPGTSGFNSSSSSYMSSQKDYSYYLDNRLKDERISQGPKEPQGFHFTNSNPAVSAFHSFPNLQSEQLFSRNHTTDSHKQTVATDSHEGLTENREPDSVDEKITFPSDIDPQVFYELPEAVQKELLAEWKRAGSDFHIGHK
# Hit rate of the full screen: of about 390,000 compounds, about 4,000 (1%) were called active. Inconclusive means that the source gave no clear call. Such entries were picked first, then a sample of the others. The call rests on the fitted dose curve; in most records, active means well fitted inhibition curve with a large enough effect; inconclusive means small, poorly fitted or top-dose-only effect, or another doubt; inactive means no such curve, though single readings can be large or run the other way. Potencies beside an inconclusive call are fits to weak or partial responses and may not hold up.
# Molecular target: DNA polymerase iota (Homo sapiens) (UniProt Q9UNA4)
# Assay: qHTS for Inhibitors of Polymerase Iota
# Conditions: Pol iota fluorescent replication assay, 10 min; series mostly up to 115 µM
# In short: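 Pol iota at 10 nM preincubated 15 min with compounds at room temperature; reaction started with fluorescent substrate, 50 nM final. Fluorescence read kinetically at 0 and 10 min; buffer-only wells as negative control.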
# Potency means the concentration at half of the fitted maximal effect.
row,SMILES,Potency
1,COc1ccc(OC)c(C2C/C(=N/O)C(C)C(c3cc(OC)ccc3OC)N2)c1 (centres undefined),"inconclusive: 89.1 µM [inhibitor, partial curve, poor fit]"
2,CN(C(=O)CSc1nc2cc([N+](=O)[O-])ccc2n1-c1ccc(F)cc1)C1CCS(=O)(=O)C1 (centres undefined),"inconclusive: 15.8 µM [inhibitor, partial curve, poor fit]"
3,CCOc1ccc(C2/C(=C(\O)c3c(C)[nH]c(C(=O)OC)c3C)C(=O)C(=O)N2CCN(C)C)cc1 (centres undefined),"inconclusive: 56.2 µM [inhibitor, partial curve, poor fit]"
4,COc1cc(C2C(C#N)=C(N)Oc3n[nH]c(C)c32)cc2c1OCO2 (centres undefined),"inconclusive: 10 µM [inhibitor, full curve, poor fit]"
5,Cc1cc(C)c(Cn2c3ccccc3c3cnn(CC(=O)N4CCCCCC4)c(=O)c32)c(C)c1,inactive
6,CC1C(=O)CC(c2ccc([N+](=O)[O-])cc2)NC1c1ccc([N+](=O)[O-])cc1 (centres undefined),"inconclusive: 100 µM [inhibitor, partial curve, poor fit]"
7,O=C(O)/C=C/C(=O)N1Cc2cc3ccccc3nc2C1,"inconclusive: 39.8 µM [inhibitor, single point]"
8,CCOC(=O)COc1ccc(S(=O)(=O)NCc2ccco2)cc1,"inconclusive: 56.2 µM [inhibitor, partial curve, poor fit]"
9,CN1C(=O)CC2(C=CC(=O)C=C2OC(=O)c2ccccc2)c2ccccc21 (centres undefined),inactive
10,COC(=O)c1ccc(COc2ccc(/C=N/Nc3nc(C)cc(=O)[nH]3)cc2)cc1,"inconclusive: 15.8 µM [inhibitor, full curve]"
11,O=S1(=O)c2ccccc2N(Cc2ccccc2)c2ccccc21,"inconclusive: 79.4 µM [inhibitor, partial curve, poor fit]"
12,CC(=O)c1ccc(NC(=O)c2c3c(nc4ccccc24)C(=O)N(C2CCCCC2)C3)cc1,inactive
13,CC12CCC(=O)N1C(C(=O)Nc1cccc(S(=O)(=O)N3CCCCC3)c1)CS2 (centres undefined),"inconclusive: 39.8 µM [inhibitor, single point]"
14,CC(C)(C)C(=O)N1CCN(c2ccnc3cc(Cl)ccc23)CC1,"inconclusive: 89.1 µM [inhibitor, single point]"
15,C#CCCc1cocc1/C=[N+](\[O-])c1ccc(C(=O)OCC)cc1,active: 35.5 µM
16,CCC(CO)Oc1cc(NC(=O)c2cccc(Cl)c2)c2ncn(C(C)C)c2c1 (centres undefined),"inconclusive: 15.8 µM [inhibitor, partial curve, poor fit]"
17,CCOc1ccc2nc(NC(=O)CSc3nnnn3C3CCCCC3)sc2c1,"inconclusive: 50.1 µM [inhibitor, full curve, poor fit]"
18,COCCCn1c(=O)/c(=C\c2ccccc2OC(C)C)s/c1=C(/C#N)C(=O)Nc1ccc(C(=O)O)cc1,"inconclusive: 31.6 µM [inhibitor, single point]"
19,COC(=O)[C@@H](Cc1ccccc1)NC(=O)Cn1cc(C)c(=O)[nH]c1=O,inactive
20,C/C(=N\NC(=O)c1nnn(-c2nonc2N)c1-c1ccc2c(c1)OCO2)c1ccc(C)cc1,"inconclusive: 31.6 µM [inhibitor, single point]"

# Reformatted with bars between the fields: entries from further up.
row | SMILES | Potency
11 | O=S1(=O)c2ccccc2N(Cc2ccccc2)c2ccccc21 | inconclusive: 79.4 µM [inhibitor, partial curve, poor fit]
12 | CC(=O)c1ccc(NC(=O)c2c3c(nc4ccccc24)C(=O)N(C2CCCCC2)C3)cc1 | inactive

# Remaining list, next part

row,SMILES,Potency
1,Cc1ccccc1-c1cc(C(=O)Nc2nc3c(s2)CCCC3)c2ccccc2n1,"inconclusive: 14.1 µM [inhibitor, partial curve]"
2,O=C(NCc1cccc(F)c1)c1ccc(-n2cnc3cccnc32)cc1,inactive
3,COc1ccc(-n2ccnc(SCC(=O)NCc3ccccc3Cl)c2=O)cc1,"inconclusive: 20 µM [inhibitor, partial curve, poor fit]"
4,Cc1cc(Cl)c(OCCOCCN2CCCC(C)C2)c(Br)c1 (centres undefined),inactive
5,CCOC(=O)c1ccc(S(=O)(=O)N2CCN(C(=O)c3cccc(S(=O)(=O)N4CC(C)OC(C)C4)c3)CC2)cc1 (centres undefined),"inconclusive: 56.2 µM [inhibitor, partial curve, poor fit]"
6,CCCc1cc(C(N)=O)c(NC(=O)c2ccoc2C)s1,"inconclusive: 20 µM [inhibitor, full curve, poor fit]"
7,Nc1cc(=O)[nH]c(SCC(=O)Nc2cc(S(=O)(=O)N3CCCCC3)ccc2Cl)n1,"inconclusive: 63.1 µM [inhibitor, partial curve, poor fit]"
8,CCc1c(C)nc2cc(-c3cc(OC)cc(OC)c3)nn2c1N1CCCC1,"inconclusive: 28.2 µM [inhibitor, partial curve, poor fit]"
9,O=C(CSc1nccn1-c1ccc(Cl)cc1)Nc1ccc2c(c1)OCO2,inactive
10,O=C(N/N=C/c1ccc([N+](=O)[O-])o1)c1ccncc1,"inconclusive: 39.8 µM [inhibitor, single point]"
11,CCOc1cc(/C=N/N=C2/NC(=O)C(CC(=O)O)S2)ccc1OCc1ccc(Cl)cc1Cl (centres undefined),"inconclusive: 22.4 µM [inhibitor, full curve, poor fit]"
12,CC(=O)Nc1ccc(NC(=O)c2cc(S(=O)(=O)N3CCCCC3)ccc2C)cc1,"inconclusive: 89.1 µM [inhibitor, single point]"
13,C/C=C\C=C\C(=O)N1CC2(CC(c3cccc(NC(=O)CC(c4ccccc4)c4ccccc4)c3)=NO2)C[C@H]1C(N)=O (some centres undefined),"inconclusive: 14.1 µM [inhibitor, full curve]"
14,CN(C)c1ccc(-c2c3ccccc3nc3ccccc23)cc1,"inconclusive: 14.1 µM [inhibitor, full curve, poor fit]"
15,Cc1[nH]n(-c2ccccc2)c(=O)c1C(c1ccc(C(=O)O)cc1)c1c(C)[nH]n(-c2ccccc2)c1=O,active: 1.41 µM
16,Cc1cccc(NS(=O)(=O)c2ccc3oc(=O)c4ncn(C)c4c3c2)c1C,inactive
17,COc1ccc(NC(=O)CN(C)CC(=O)Nc2sc3c(c2C#N)CCC3)cc1,"inconclusive: 70.8 µM [inhibitor, single point]"
18,Cc1cccn2cc(CCNS(=O)(=O)c3cccs3)nc12,"inconclusive: 100 µM [inhibitor, single point]"
19,COc1ccc(CNC(=O)COC(=O)CCN2C(=O)C3CC=CCC3C2=O)cc1OC (centres undefined),"inconclusive: 89.1 µM [inhibitor, single point]"
